Measurements reported in article PMC12830623.
For at least one entry, the source does not settle the construct or the ends of the probe.

What was measured:
Assay in all cases: X-ray crystallography
Conditions in all cases: binary post-catalytic complex, closed finger, 20 mM MgCl2 in duplex preparation, primer S9 enzymatically extended with two TNA residues (3'-tTtA-2') at positions 12-13, rest DNA, Crystallization: duplex in 50 mM Tris-HCl pH 8.5, 200 mM NaCl, 0.1 mM EDTA, 1 mM DTT, hanging drop, recombinant protein, protein details: tagless, label: 5'-Cy5 on template T1, letters put together from the description
10-92 TNAP = system: 10-92 TNAP
5-270 TNAP = system: 5-270 TNAP
7-47 TNAP = system: 7-47 TNAP
8-64 TNAP = system: 8-64 TNAP

Measured: binding result

CGCGAACTGCGTA / AAACGTACGCAGTTCGCG [P/T1 duplex extended with tTtA (binary)]
binds: all assays above
